Test results as given in the supplement of paper PMC10849652.
Some of the results follow.

Sequences of proteins named here, by UniProt entry; tags and fusion partners are left off. A change or cut given only in a name is not applied to a line headed by its entry.
UniProt P23368: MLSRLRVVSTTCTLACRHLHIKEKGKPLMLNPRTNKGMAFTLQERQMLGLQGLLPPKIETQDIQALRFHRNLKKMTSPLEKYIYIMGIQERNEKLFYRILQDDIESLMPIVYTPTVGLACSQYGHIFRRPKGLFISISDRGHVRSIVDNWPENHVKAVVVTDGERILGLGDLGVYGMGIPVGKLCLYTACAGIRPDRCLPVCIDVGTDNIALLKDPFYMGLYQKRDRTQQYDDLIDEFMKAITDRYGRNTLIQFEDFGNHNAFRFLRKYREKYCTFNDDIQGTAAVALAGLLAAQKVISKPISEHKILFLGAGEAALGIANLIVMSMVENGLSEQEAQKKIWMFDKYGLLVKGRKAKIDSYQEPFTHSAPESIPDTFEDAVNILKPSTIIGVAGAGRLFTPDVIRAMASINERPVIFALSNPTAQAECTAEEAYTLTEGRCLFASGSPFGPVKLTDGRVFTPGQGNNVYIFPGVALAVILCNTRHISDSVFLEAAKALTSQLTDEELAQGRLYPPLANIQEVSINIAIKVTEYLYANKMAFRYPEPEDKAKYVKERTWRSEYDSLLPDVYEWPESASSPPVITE
UniProt Q14696: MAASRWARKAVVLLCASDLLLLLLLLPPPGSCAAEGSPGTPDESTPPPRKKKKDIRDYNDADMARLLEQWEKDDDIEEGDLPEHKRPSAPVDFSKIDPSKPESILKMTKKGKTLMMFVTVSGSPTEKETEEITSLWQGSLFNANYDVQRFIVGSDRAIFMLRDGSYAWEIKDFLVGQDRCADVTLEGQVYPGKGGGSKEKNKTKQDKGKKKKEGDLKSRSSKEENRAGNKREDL
UniProt Q9UBB5, whole entry, looked up: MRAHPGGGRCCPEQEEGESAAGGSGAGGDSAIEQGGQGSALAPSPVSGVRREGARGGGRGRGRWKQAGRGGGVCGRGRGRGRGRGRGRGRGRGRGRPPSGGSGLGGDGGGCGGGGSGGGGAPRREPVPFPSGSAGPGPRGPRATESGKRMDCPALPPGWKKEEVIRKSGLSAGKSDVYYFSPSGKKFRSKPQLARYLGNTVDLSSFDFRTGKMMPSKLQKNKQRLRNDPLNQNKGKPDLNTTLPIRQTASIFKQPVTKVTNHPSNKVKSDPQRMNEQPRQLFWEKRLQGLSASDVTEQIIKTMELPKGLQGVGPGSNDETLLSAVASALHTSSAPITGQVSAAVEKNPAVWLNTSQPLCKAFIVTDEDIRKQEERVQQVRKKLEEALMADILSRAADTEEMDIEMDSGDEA
UniProt Q8TC05: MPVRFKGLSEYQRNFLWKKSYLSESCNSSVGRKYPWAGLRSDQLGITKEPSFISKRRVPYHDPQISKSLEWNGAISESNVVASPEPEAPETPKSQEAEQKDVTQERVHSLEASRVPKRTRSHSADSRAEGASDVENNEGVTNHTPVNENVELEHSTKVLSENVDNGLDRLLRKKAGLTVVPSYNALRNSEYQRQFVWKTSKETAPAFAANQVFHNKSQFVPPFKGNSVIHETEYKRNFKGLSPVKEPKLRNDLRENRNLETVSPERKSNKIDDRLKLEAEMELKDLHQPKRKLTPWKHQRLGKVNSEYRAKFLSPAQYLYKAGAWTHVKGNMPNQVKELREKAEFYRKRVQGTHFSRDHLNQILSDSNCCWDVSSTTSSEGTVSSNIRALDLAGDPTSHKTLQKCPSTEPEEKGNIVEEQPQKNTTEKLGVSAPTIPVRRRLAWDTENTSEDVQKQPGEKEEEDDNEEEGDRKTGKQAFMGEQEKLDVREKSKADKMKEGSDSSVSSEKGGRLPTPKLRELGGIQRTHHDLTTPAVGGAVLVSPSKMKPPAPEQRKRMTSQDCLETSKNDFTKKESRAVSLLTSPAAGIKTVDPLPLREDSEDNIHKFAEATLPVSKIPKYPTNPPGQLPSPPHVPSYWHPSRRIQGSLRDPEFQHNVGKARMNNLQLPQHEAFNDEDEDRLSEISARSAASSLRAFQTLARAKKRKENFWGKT
UniProt P50579: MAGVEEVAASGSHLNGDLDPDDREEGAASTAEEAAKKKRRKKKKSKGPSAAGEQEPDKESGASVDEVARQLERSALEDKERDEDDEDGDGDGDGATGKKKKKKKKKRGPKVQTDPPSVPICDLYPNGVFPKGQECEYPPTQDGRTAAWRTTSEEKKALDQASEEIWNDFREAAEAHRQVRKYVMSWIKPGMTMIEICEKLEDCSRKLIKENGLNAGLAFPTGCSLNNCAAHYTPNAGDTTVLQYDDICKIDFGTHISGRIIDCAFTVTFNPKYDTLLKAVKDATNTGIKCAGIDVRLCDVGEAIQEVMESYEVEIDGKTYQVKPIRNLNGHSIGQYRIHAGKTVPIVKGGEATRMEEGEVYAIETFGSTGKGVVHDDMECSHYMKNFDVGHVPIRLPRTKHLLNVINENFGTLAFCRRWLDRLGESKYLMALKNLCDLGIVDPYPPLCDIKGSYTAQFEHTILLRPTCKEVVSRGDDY
UniProt Q9GZU1, whole entry, looked up: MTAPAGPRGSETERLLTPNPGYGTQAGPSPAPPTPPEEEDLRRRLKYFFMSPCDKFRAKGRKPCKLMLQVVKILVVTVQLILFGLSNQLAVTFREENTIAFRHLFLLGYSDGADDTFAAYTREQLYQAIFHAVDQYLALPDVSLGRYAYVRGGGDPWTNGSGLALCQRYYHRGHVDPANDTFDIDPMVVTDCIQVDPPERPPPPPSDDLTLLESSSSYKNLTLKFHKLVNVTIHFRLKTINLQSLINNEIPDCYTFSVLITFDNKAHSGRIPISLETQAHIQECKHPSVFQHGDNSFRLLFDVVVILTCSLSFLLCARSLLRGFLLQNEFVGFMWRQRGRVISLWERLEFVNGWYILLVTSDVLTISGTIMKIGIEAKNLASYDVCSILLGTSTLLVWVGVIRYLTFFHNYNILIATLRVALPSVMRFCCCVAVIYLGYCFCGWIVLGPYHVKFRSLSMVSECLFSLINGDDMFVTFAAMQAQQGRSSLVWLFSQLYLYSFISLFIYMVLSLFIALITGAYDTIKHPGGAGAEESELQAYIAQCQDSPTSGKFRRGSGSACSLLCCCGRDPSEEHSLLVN
UniProt Q02078: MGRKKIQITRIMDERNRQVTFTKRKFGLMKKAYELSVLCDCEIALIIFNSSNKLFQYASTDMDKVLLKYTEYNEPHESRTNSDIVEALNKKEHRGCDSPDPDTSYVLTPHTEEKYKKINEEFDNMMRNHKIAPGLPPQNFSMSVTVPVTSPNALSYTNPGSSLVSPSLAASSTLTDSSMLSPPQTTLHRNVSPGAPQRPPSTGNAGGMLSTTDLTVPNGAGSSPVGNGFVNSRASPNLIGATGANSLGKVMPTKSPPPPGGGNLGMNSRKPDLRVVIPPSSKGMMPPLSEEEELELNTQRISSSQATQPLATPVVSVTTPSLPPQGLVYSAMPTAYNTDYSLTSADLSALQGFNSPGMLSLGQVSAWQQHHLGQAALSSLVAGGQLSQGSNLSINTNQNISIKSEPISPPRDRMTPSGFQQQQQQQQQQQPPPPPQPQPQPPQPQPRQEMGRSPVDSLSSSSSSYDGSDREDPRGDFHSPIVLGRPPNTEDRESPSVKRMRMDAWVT
UniProt Q9Y2X0: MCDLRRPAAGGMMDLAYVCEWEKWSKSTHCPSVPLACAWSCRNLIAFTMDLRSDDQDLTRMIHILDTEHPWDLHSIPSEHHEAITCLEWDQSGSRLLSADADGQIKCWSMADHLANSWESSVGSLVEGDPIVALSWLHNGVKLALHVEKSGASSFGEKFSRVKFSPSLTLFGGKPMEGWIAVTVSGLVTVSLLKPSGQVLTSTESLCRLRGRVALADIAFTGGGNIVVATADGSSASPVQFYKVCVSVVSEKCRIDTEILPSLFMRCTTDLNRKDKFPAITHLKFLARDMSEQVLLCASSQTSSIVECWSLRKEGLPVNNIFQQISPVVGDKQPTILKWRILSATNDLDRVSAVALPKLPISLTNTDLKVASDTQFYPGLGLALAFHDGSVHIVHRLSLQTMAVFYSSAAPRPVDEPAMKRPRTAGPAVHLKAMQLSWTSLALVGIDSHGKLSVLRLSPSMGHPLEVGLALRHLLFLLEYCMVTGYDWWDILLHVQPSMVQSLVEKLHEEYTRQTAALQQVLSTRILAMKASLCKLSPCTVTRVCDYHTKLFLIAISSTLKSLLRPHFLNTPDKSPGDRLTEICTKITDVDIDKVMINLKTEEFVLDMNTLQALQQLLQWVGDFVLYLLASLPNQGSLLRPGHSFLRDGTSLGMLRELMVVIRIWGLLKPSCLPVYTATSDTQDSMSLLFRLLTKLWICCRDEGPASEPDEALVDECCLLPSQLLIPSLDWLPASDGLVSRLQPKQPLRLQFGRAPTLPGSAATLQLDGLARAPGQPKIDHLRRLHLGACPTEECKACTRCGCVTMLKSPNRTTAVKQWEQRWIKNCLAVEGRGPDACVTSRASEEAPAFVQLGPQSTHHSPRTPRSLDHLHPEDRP
UniProt Q16798: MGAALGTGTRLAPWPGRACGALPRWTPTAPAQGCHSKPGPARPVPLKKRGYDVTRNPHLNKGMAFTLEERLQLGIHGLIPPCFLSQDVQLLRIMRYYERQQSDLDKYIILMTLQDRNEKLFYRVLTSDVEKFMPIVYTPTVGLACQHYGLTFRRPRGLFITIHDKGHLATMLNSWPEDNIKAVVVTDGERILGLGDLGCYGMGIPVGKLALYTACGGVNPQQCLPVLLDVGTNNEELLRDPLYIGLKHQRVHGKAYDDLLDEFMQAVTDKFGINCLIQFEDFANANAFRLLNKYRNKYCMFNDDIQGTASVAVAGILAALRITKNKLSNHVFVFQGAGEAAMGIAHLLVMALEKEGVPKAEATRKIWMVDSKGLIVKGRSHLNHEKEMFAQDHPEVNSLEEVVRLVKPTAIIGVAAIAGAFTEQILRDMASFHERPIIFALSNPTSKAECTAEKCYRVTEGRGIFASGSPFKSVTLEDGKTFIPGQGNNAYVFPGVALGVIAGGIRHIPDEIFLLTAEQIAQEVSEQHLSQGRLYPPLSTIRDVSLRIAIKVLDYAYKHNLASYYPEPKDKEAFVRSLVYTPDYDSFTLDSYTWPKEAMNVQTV
UniProt Q14814: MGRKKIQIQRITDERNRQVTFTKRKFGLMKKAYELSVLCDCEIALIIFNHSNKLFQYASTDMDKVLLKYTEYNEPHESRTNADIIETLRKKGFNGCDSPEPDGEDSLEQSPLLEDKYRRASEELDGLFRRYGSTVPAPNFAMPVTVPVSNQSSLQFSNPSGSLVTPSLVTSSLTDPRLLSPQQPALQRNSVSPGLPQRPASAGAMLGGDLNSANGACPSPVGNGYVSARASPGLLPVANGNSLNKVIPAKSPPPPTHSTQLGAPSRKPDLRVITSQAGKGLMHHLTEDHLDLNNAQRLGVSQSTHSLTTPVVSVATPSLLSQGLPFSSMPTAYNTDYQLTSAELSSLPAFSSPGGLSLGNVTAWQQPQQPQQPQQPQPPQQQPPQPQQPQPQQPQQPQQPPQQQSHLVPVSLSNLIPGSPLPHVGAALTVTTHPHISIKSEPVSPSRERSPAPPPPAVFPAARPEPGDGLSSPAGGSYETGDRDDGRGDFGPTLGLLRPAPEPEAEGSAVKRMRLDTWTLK
UniProt Q9NRN9: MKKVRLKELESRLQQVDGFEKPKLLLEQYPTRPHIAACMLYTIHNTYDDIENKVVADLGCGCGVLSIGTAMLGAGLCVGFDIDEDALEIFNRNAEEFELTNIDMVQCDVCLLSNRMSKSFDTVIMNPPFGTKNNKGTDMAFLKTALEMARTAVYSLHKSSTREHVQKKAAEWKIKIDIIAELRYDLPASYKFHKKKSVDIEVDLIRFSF
UniProt Q9P086: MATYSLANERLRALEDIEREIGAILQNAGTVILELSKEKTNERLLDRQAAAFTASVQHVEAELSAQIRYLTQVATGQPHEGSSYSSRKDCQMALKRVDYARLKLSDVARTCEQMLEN
UniProt Q6ZN04: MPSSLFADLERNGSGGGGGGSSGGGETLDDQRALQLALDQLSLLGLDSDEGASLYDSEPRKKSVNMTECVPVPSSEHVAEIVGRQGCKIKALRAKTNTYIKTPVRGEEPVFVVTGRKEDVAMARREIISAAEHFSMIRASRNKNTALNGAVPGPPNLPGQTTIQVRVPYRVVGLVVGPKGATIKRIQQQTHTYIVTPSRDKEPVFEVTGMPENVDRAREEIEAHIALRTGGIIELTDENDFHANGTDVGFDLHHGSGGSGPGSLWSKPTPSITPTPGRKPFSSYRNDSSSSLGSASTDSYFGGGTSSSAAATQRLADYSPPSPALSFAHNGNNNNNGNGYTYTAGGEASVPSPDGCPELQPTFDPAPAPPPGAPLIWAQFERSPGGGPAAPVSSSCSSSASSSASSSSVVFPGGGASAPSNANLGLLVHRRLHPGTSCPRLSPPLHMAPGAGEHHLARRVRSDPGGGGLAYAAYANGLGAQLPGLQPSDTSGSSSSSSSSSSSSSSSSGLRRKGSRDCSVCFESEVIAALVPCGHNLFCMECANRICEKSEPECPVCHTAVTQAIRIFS
UniProt Q9NWA0: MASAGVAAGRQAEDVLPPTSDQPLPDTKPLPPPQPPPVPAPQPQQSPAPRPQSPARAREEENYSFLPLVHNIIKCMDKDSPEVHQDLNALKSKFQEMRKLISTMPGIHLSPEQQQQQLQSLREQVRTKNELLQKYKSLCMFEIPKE

Assays:
Experiment in all cases: log2 fold change, soluble protein after heating vs DMSO (PISA); higher = thermal stabilisation; K562 lysate, 10 uM; active = over 0.2 and 3.5 SD of the protein, either way, in both replicates (recomputed)
erlotinib = compound: C#Cc1cccc(Nc2ncnc3cc(OCCOC)c(OCCOC)cc23)c1 [erlotinib]
Method in brief: (§1)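 Pellets of K562 cells were dounce-homogenised in PBS pH 7.4 with 1 mM MgCl2, and the crude extract was held at 1 mg/mL protein for a 30 min treatment with 10 μM compound. Aliquots were heated for 3 min over 48°C-58°C and pooled before NP-40 was added to 0.5% at 4°C. The supernatant from 21,000xg for 90 min was quantified by TMTpro 16plex LC-MS/MS with channel sums equalised. Values are reported from duplicates as log-two fold change in thermal stability relative to solvent controls.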

[1] = compound: C/C(=N\NC(=O)C1=CC(=CC=C1)S(=O)(=O)N2CCOCC2)/C3=C(C=CC(=C3)Cl)O
Method in brief: as §1

[2] = compound: C1=CC(=CC=C1C2=NC3=C(N2)C=C(C=C3)C(=O)N)OC4=CC=C(C=C4)Cl
Method in brief: as §1

[3] = compound: C1=CC2=C(C=CC(=C2)/C=C\3/C(=O)NC(=NCC4=CC=CS4)S3)N=C1
Method in brief: as §1

[4] = compound: C1=CC2=NC=CN=C2C=C1/C=C/3\C(=O)NC(=O)S3
Method in brief: as §1

[5] = compound: C1=CC=C(C=C1)C2=NC(=C(N2)C3=CC=NC=C3)C4=CC(=C(C=C4)Cl)O
Method in brief: as §1

[6] = compound: C1=CC=C2C(=C1)C3=NNC4=CC=CC(=C43)C2=O
Method in brief: as §1

[7] = compound: C1CCN(C1)C(=O)NC2=CC=CC(=C2)NC3=NC=C(C(=N3)NCCC4=CN=CN4)Br
Method in brief: as §1

[8] = compound: C1CN(CCC1(CC2=CC=C(C=C2)Cl)N)C3=NC=NC4=C3C=CN4
Method in brief: as §1

IRAK-1-4 Inhibitor I = compound: C1COCCN1CCN2C3=CC=CC=C3N=C2NC(=O)C4=CC(=CC=C4)[N+](=O)[O-] [IRAK-1-4 Inhibitor I]
Method in brief: as §1

Row | Target | log2 fold change (erlotinib) | log2 fold change [1] | log2 fold change [2] | log2 fold change [3] | log2 fold change [4] | log2 fold change [5] | log2 fold change [6] | log2 fold change [7] | log2 fold change [8] | log2 fold change (IRAK-1-4 Inhibitor I)
1 | ME2 (UniProt P23368) | inactive: -0.032 | inactive: 0.013 | inactive: -0.019 | inactive: 0.013 | inactive: -0.027 | inactive: -0.009 | inactive: 0.038 | inactive: -0.039 | inactive: 0.023 | inactive: -0.012
2 | MESD (UniProt Q14696) | inactive: -0.01 | inactive: 0.001 | inactive: 0.023 | inactive: -0.005 | inactive: -0.006 | inactive: -0.013 | inactive: 0.069 | inactive: -0.005 | inactive: -0.001 | inactive: -0.02
3 | MFGE8 (UniProt Q08431) | inactive: -0.012 | inactive: 0.014 | inactive: 0.036 | inactive: -0.055 | inactive: -0.014 | inactive: 0.001 | inactive: 0.009 | inactive: 0.001 | inactive: 0.017 | inactive: 0
4 | MBTPS1 (UniProt Q14703) | inactive: 0.033 | inactive: -0.022 | inactive: -0.044 | inactive: -0.009 | inactive: -0.053 | inactive: 0.029 | inactive: -0.014 | inactive: -0.029 | inactive: 0.131 | inactive: -0.026
5 | MBD2 (UniProt Q9UBB5) | inactive: 0.013 | inactive: -0.933 | inactive: -0.003 | inactive: 0.05 | inactive: -0.016 | inactive: 0.094 | inactive: 0.023 | inactive: -0.069 | inactive: -0.011 | inactive: 0.016
6 | MECR (UniProt Q9BV79) | inactive: -0.019 | inactive: 0.027 | inactive: -0.005 | inactive: -0.028 | inactive: 0.012 | inactive: -0.038 | inactive: -0.035 | inactive: -0.053 | inactive: 0.079 | inactive: 0.025
7 | MEX3D isoform 3 (UniProt Q86XN8) | inactive: -0.115 | inactive: -0.066 | inactive: -0.048 | inactive: 0.031 | inactive: -0.042 | inactive: 0.004 | inactive: 0.003 | inactive: 0.146 | inactive: 0.056 | inactive: 0.077
8 | MFSD12 isoform 3 (UniProt Q6NUT3) | inactive: 0.029 | inactive: 0.047 | inactive: 0.049 | inactive: 0.005 |  |  | inactive: 0.001 |  |  | 
9 | MDM1 (UniProt Q8TC05) | inactive: -0.018 | inactive: -0.105 | inactive: -0.036 | inactive: -0.066 |  | inactive: -0.054 | inactive: -0.041 | inactive: -0.05 | inactive: -0.075 | inactive: -0.043
10 | METAP2 (UniProt P50579) | inactive: 0 | inactive: 0.007 | inactive: 0.015 | inactive: 0.018 | inactive: -0.012 | inactive: 0.028 | inactive: -0.019 | inactive: -0.062 | inactive: -0.014 | inactive: -0.015
11 | MCOLN1 (UniProt Q9GZU1) | inactive: 0.057 | inactive: 0.182 | inactive: 0.001 | inactive: -0.055 | inactive: -0.143 | inactive: 0.027 | inactive: 0.037 |  |  | inactive: -0.034
12 | MCAT (UniProt Q8IVS2) | inactive: -0.086 | inactive: 0.032 | inactive: 0.007 | inactive: -0.001 | inactive: -0.005 | inactive: -0.035 | inactive: 0.018 | inactive: 0.001 | inactive: 0.021 | inactive: -0.01
13 | MDN1 (UniProt Q9NU22) | inactive: -0.029 | inactive: 0.009 | inactive: 0.015 | inactive: 0.021 | inactive: 0.02 | inactive: 0.005 | inactive: -0.058 | inactive: -0.018 | inactive: 0.011 | inactive: 0.008
14 | MEF2A isoform 2 (UniProt Q02078) | inactive: -0.079 | inactive: -0.044 | inactive: 0.039 | inactive: 0.079 | inactive: -0.004 | inactive: 0.01 | inactive: -0.168 |  |  | inactive: -0.04
15 | MED16 (UniProt Q9Y2X0) | inactive: 0.018 | inactive: -0.033 | inactive: 0.001 | inactive: 0.019 | inactive: -0.011 | inactive: 0.008 | inactive: -0.071 | inactive: 0.01 | inactive: -0.045 | inactive: -0.001
16 | MCM3AP (UniProt O60318) | inactive: 0.119 | inactive: 0.046 | inactive: 0.1 | inactive: 0.003 | inactive: -0.142 | inactive: -0.082 | inactive: 0.2 |  |  | inactive: 0.035
17 | MBIP (UniProt Q9NS73) | inactive: 0.002 | inactive: -0.018 | inactive: 0.065 | inactive: -0.183 | inactive: -0.126 | inactive: -0.078 | inactive: -0.166 | inactive: -0.188 | inactive: -0.007 | inactive: -0.024

From no. 8 up to 17, copied from above:
Row | Target | log2 fold change (erlotinib) | log2 fold change [1] | log2 fold change [2] | log2 fold change [3] | log2 fold change [4] | log2 fold change [5] | log2 fold change [6] | log2 fold change [7] | log2 fold change [8] | log2 fold change (IRAK-1-4 Inhibitor I)
8 | MFSD12 isoform 3 (UniProt Q6NUT3) | inactive: 0.029 | inactive: 0.047 | inactive: 0.049 | inactive: 0.005 |  |  | inactive: 0.001 |  |  | 
9 | MDM1 (UniProt Q8TC05) | inactive: -0.018 | inactive: -0.105 | inactive: -0.036 | inactive: -0.066 |  | inactive: -0.054 | inactive: -0.041 | inactive: -0.05 | inactive: -0.075 | inactive: -0.043
10 | METAP2 (UniProt P50579) | inactive: 0 | inactive: 0.007 | inactive: 0.015 | inactive: 0.018 | inactive: -0.012 | inactive: 0.028 | inactive: -0.019 | inactive: -0.062 | inactive: -0.014 | inactive: -0.015
11 | MCOLN1 (UniProt Q9GZU1) | inactive: 0.057 | inactive: 0.182 | inactive: 0.001 | inactive: -0.055 | inactive: -0.143 | inactive: 0.027 | inactive: 0.037 |  |  | inactive: -0.034
12 | MCAT (UniProt Q8IVS2) | inactive: -0.086 | inactive: 0.032 | inactive: 0.007 | inactive: -0.001 | inactive: -0.005 | inactive: -0.035 | inactive: 0.018 | inactive: 0.001 | inactive: 0.021 | inactive: -0.01
13 | MDN1 (UniProt Q9NU22) | inactive: -0.029 | inactive: 0.009 | inactive: 0.015 | inactive: 0.021 | inactive: 0.02 | inactive: 0.005 | inactive: -0.058 | inactive: -0.018 | inactive: 0.011 | inactive: 0.008
14 | MEF2A isoform 2 (UniProt Q02078) | inactive: -0.079 | inactive: -0.044 | inactive: 0.039 | inactive: 0.079 | inactive: -0.004 | inactive: 0.01 | inactive: -0.168 |  |  | inactive: -0.04
15 | MED16 (UniProt Q9Y2X0) | inactive: 0.018 | inactive: -0.033 | inactive: 0.001 | inactive: 0.019 | inactive: -0.011 | inactive: 0.008 | inactive: -0.071 | inactive: 0.01 | inactive: -0.045 | inactive: -0.001
16 | MCM3AP (UniProt O60318) | inactive: 0.119 | inactive: 0.046 | inactive: 0.1 | inactive: 0.003 | inactive: -0.142 | inactive: -0.082 | inactive: 0.2 |  |  | inactive: 0.035
17 | MBIP (UniProt Q9NS73) | inactive: 0.002 | inactive: -0.018 | inactive: 0.065 | inactive: -0.183 | inactive: -0.126 | inactive: -0.078 | inactive: -0.166 | inactive: -0.188 | inactive: -0.007 | inactive: -0.024

More results follow.

Row | Target | log2 fold change (erlotinib) | log2 fold change [1] | log2 fold change [2] | log2 fold change [3] | log2 fold change [4] | log2 fold change [5] | log2 fold change [6] | log2 fold change [7] | log2 fold change [8] | log2 fold change (IRAK-1-4 Inhibitor I)
18 | MDM2 isoform 11 (UniProt Q00987) | inactive: 0.108 | inactive: -0.039 | inactive: 0.037 | inactive: -0.071 | inactive: 0.021 | inactive: 0.084 | inactive: 0.04 |  |  | inactive: 0.151
19 | MELTF (UniProt P08582) | inactive: -0.083 | inactive: 0.018 | inactive: 0.033 | inactive: -0.013 | inactive: -0.09 |  | inactive: -0.005 | inactive: -0.019 | inactive: 0.038 | 
20 | MFAP3 (UniProt P55082) | inactive: -0.063 | inactive: 0.088 | inactive: 0.096 | inactive: 0.011 |  | inactive: -0.004 | inactive: 0.002 |  |  | inactive: -0.01
21 | MFHAS1 (UniProt Q9Y4C4) | inactive: -0.111 | inactive: 0.02 | inactive: -0.056 | inactive: 0.148 | inactive: 0.041 | inactive: -0.047 | inactive: -0.077 |  |  | inactive: 0.05
22 | ME3 (UniProt Q16798) | inactive: -0.093 | inactive: 0.118 | inactive: 0.073 | inactive: -0.042 | inactive: 0.032 | inactive: -0.059 | inactive: -0.086 | inactive: 0.009 | inactive: -0.019 | inactive: -0.005
23 | MEF2D (UniProt Q14814) | inactive: -0.041 | inactive: -0.038 | inactive: 0.008 | inactive: -0.011 | inactive: 0.035 | inactive: -0.042 | inactive: 0.032 | inactive: -0.014 | inactive: 0.012 | inactive: 0.009
24 | MED24 (UniProt O75448) | inactive: 0.01 | inactive: 0.042 | inactive: 0.013 | inactive: -0.02 | inactive: -0.036 | inactive: 0 | inactive: -0.05 | inactive: -0.017 | inactive: 0.005 | inactive: 0.038
25 | METTL5 (UniProt Q9NRN9) | inactive: -0.023 | inactive: 0.031 | inactive: 0.034 | inactive: -0.018 | inactive: 0.004 | inactive: -0.036 | inactive: 0.045 | inactive: 0.017 | inactive: -0.038 | inactive: 0.037
26 | MFSD8 (UniProt Q8NHS3) | inactive: -0.079 | inactive: 0.013 | inactive: 0.019 | inactive: 0.022 | inactive: -0.028 | inactive: -0.006 | inactive: -0.056 |  |  | inactive: -0.015
27 | MED11 (UniProt Q9P086) | inactive: 0.118 | inactive: 0.353 | inactive: 0.025 | inactive: 0.086 | inactive: -0.043 |  | inactive: 0.171 |  |  | 
28 | MEX3B (UniProt Q6ZN04) | inactive: -0.153 |  | inactive: -0.047 |  | inactive: -0.126 | inactive: 0.189 |  | inactive: -0.054 | inactive: -0.08 | inactive: -0.07
29 | METAP2 isoform 2 (UniProt P50579) |  |  |  |  |  | inactive: -0.186 |  | inactive: -0.024 | inactive: 0.063 | inactive: 0.185
30 | MBTPS2 (UniProt O43462) |  |  |  |  |  |  |  | inactive: 0.024 | inactive: 0.129 | 
31 | MEGF8 (UniProt Q7Z7M0) | inactive: 0.045 |  | inactive: 0.016 |  | inactive: 0.013 | inactive: 0.075 |  | inactive: -0.116 | inactive: 0.071 | active: -0.36
32 | MED9 (UniProt Q9NWA0) |  |  |  |  |  | inactive: 0.015 |  |  |  | inactive: -0.047
33 | MBD4 (UniProt O95243) |  |  |  |  |  |  |  | inactive: -0.075 | inactive: -0.06 | 
